Source: PubChem BioAssay AID256 (DTP/NCI, 2004)
The list does not hold the whole screen: it gathers tests that were run many times, whatever their T/C, doses with no T/C, and many T/C values between a quarter and a half above the control. Further doses and runs are listed elsewhere. T/C: endpoint of the treated group in % of that of the vehicle group. Some entries give survivors of the animals treated and no T/C: the source files T/C as zero there, which appears to mark a toxic dose or a test without result, not a measured value. Some survivor counts are full or nearly so, which does not show that the dose was tolerated: the source hardly ever lists a survival T/C far under the control, and the zero likely stands for such cases as well. Counts of survivors are from the toxicity check (mostly the fifth day) where no day follows; animals may have died later. Schedules are NCI's codes, read here as Q, the interval in days (D) or hours (H), X, the number of doses. For survival time, the PubChem record calls one and a half times the control and up active, and a quarter to a half above the control has no call in these data; cut-offs in other NCI protocols can differ. Some entries hold several experiments; their values stand side by side, smallest first. Some T/C values are followed by the survivors on the day toxicity was checked, most often the fifth; where none is given, no animal had died by that day.

Tested on: CD2F1 mice, L1210 leukemia ip, survival T/C
Assay: NCI In Vivo Anticancer Drug Screen. Data for tumor model L1210 Leukemia (intraperitoneal) in CD2F1 (CDF1) mice
Conditions: higher T/C = longer survival
Method in brief: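 Compound-dosed mice with transplantable tumor versus matched vehicle controls; endpoint ratio T/C reported.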

[1] = T/C endpoint: mean survival time, dose: 400.0 mg/kg/injection, schedule: Q01DX009 (ip), vehicle: saline with Tween-80
[2] = T/C endpoint: mean survival time, dose: 75.0 mg/kg/injection, schedule: Q01DX001 (ip), vehicle: saline
[3] = T/C endpoint: mean survival time, dose: 150.0 mg/kg/injection, schedule: Q01DX001 (ip), vehicle: saline
[4] = T/C endpoint: mean survival time, dose: 300.0 mg/kg/injection, schedule: Q01DX001 (ip), vehicle: saline
[5] = T/C endpoint: mean survival time, dose: 400.0 mg/kg/injection, schedule: Q04DX002 (ip), vehicle: saline with Tween-80
[6] = T/C endpoint: mean survival time, dose: 200.0 mg/kg/injection, schedule: Q01DX001 (ip), vehicle: saline
[7] = T/C endpoint: mean survival time, dose: 400.0 mg/kg/injection, schedule: Q01DX001 (ip), vehicle: saline
[8] = T/C endpoint: mean survival time, dose: 100.0 mg/kg/injection, schedule: Q04DX003 (ip), vehicle: saline with Tween-80
[9] = T/C endpoint: mean survival time, dose: 200.0 mg/kg/injection, schedule: Q04DX003 (ip), vehicle: saline with Tween-80
[10] = T/C endpoint: mean survival time, dose: 400.0 mg/kg/injection, schedule: Q04DX003 (ip), vehicle: saline with Tween-80
[11] = T/C endpoint: mean survival time, dose: 200.0 mg/kg/injection, schedule: Q01DX009 (ip), vehicle: saline with Tween-80
[12] = T/C endpoint: mean survival time, dose: 400.0 mg/kg/injection, schedule: Q04DX002 (ip), vehicle: saline

N#CC(C#N)=C/C=C/c1cccc([N+](=O)[O-])c1
survivor count (T/C endpoint: mean survival time, dose: 25.0 mg/kg/injection, schedule: Q01DX009 (ip), vehicle: Klucel (hydroxypropylcellulose) (HPC)): 2 of 6 | survivor count (T/C endpoint: mean survival time, dose: 50.0 mg/kg/injection, schedule: Q01DX009 (ip), vehicle: Klucel (hydroxypropylcellulose) (HPC)): 0 of 6

NC(N)=Nc1ccc(C(=O)Oc2ccc([N+](=O)[O-])cc2)cc1
survivor count [1]: 4 of 6

Nc1ccc(C(OC(=O)c2cc3ccccc3c(Cc3c(O)c(C(=O)OC(c4ccc(N)cc4)(c4ccc(N)cc4)c4ccc(N)cc4)cc4ccccc34)c2O)(c2ccc(N)cc2)c2ccc(N)cc2)cc1
survivor count (T/C endpoint: mean survival time, dose: 25.0 mg/kg/injection, schedule: Q01DX009 (ip), vehicle: saline with Tween-80): 4 of 6

NC(=O)c1cn(C2OC(CO)C(O)C2O)c2nc(N)nc(N)c2c1=O (centres undefined)
T/C (T/C endpoint: mean survival time, dose: 200.0 mg/kg/injection, schedule: Q01DX005 (ip), vehicle: water): 131 % of control | T/C (T/C endpoint: median survival time, dose: 400.0 mg/kg/injection, schedule: Q01DX005 (ip), vehicle: saline with Tween-80): 127 % of control [5 of 6 alive]

O=C(O)CC(=O)CC(=O)O.[NH-]C1CCCCC1[NH-].[Pt+2]
T/C (T/C endpoint: median survival time, dose: 25.0 mg/kg/injection, schedule: Q04DX003 (ip), vehicle: saline): 128 % of control | T/C (T/C endpoint: median survival time, dose: 50.0 mg/kg/injection, schedule: Q04DX003 (ip), vehicle: saline): 128 and 141 % of control | survivor count (T/C endpoint: median survival time, dose: 200.0 mg/kg/injection, schedule: Q04DX003 (ip), vehicle: saline): 3 of 6

CCCCOC(=O)c1cc([N+](=O)[O-])cc([N+](=O)[O-])c1Sc1ncnc2nc[nH]c12
survivor count (T/C endpoint: mean survival time, dose: 150.0 mg/kg/injection, schedule: Q01DX005 (ip), vehicle: other): 0 of 3

[Br][Pt+2][Br].[NH-]C(c1ccccc1)C([NH-])c1ccccc1 (centres undefined)
T/C (T/C endpoint: mean survival time, dose: 25.0 mg/kg/injection, schedule: Q04DX003 (ip), vehicle: saline with Tween-80): 128 % of control | T/C (T/C endpoint: mean survival time, dose: 50.0 mg/kg/injection, schedule: Q04DX003 (ip), vehicle: saline with Tween-80): 137 % of control

CC1CCC2N(C1)CC1C3(O)CC4(O)C(CCC5C(=O)C(O)CCC54C)C3(O)CC(O)C1(O)C2(C)O (centres undefined)
survivor count [2]: 0 of 6 | survivor count [3]: 0 of 6 | survivor count [4]: 0 of 6

CCCCCCCCCCCCCCCCCCn1cnc2c(Cl)ncnc21
survivor count (T/C endpoint: mean survival time, dose: 100.0 mg/kg/injection, schedule: Q01DX005 (ip), vehicle: other): 6 of 6

CCCCN(CCCC)CC(O)c1ccccc1 (centres undefined)
survivor count (T/C endpoint: mean survival time, dose: 200.0 mg/kg/injection, schedule: Q04DX002 (ip), vehicle: saline with Tween-80): 0 of 3 | survivor count [5]: 0 of 3

CCCOC(=O)c1cncn1C(C)c1ccccc1 (centres undefined)
survivor count [6]: 3 of 6 | survivor count [7]: 0 of 6

CCCCCCCCCCCCNCCC(=O)O
survivor count [4]: 0 of 6

O=C(c1ccccc1)C1CC2(c3ccccc3)C(=O)C1(c1ccccc1)c1c2c2ccccc2c2ccccc12 (centres undefined)
survivor count (T/C endpoint: mean survival time, dose: 200.0 mg/kg/injection, schedule: Q01DX001 (ip), vehicle: saline with Tween-80): 3 of 3

OC1CCC2=C(C1)C1CCC2C1 (centres undefined)
survivor count [8]: 6 of 6 | survivor count [9]: 3 of 6 | survivor count [10]: 1 of 6

CC(Cl)(C(Cl)Cl)C(F)(F)F (centres undefined)
survivor count [6]: 0 of 6 | survivor count [7]: 0 of 6

O=C1C(=O)c2ccccc2-c2ccccc21
survivor count [11]: 6 of 6

CCOC(=O)CCOc1ccccc1N(CCCl)CCCl
T/C (T/C endpoint: mean survival time, dose: 66.0 mg/kg/injection, schedule: Q01DX009 (ip), vehicle: saline with Tween-80): 127 % of control | survivor count (T/C endpoint: mean survival time, dose: 150.0 mg/kg/injection, schedule: Q01DX009 (ip), vehicle: saline with Tween-80): 0 of 6

CCCCOP(=O)(OCCCC)OC(=C(Cl)Cl)P(=O)(OCCCC)OCCCC
survivor count [12]: 2 of 3

O=C(O)C(CSC(c1ccccc1)(c1ccccc1)c1ccccc1)NC(c1ccccc1)(c1ccccc1)c1ccccc1 (centres undefined)
survivor count (T/C endpoint: mean survival time, dose: 150.0 mg/kg/injection, schedule: Q01DX001 (ip), vehicle: other): 0 of 6 | survivor count (T/C endpoint: mean survival time, dose: 300.0 mg/kg/injection, schedule: Q01DX001 (ip), vehicle: other): 0 of 6

CCCCCCCCCCC[n+]1ccc(C#N)cc1
survivor count (T/C endpoint: mean survival time, dose: 37.5 mg/kg/injection, schedule: Q01DX001 (ip), vehicle: saline): 1 of 6

CC(C)c1ccc2c(c1)CC[C@H]1[C@](C)(CN=C(N)CCl)CCC[C@]21C
survivor count [5]: 3 of 3

Cc1ccnc(N)c1.[Cl-].[Cl-].[Cl-].[Cl-].[Pt+2]
survivor count [8]: 0 of 4 | survivor count [9]: 0 of 4 | survivor count [10]: 0 of 4

CC(C)(CNC1=NCCO1)NC1=NCCO1
survivor count (T/C endpoint: mean survival time, dose: 400.0 mg/kg/injection, schedule: Q04DX003 (ip), vehicle: saline): 0 of 6

ClC1CN2CCC1CC2 (centres undefined)
survivor count (T/C endpoint: mean survival time, dose: 100.0 mg/kg/injection, schedule: Q01DX009 (ip), vehicle: saline): 2 of 6

Cc1ccc(NC(=O)N(CCCl)N=O)cc1Cl
T/C (T/C endpoint: mean survival time, dose: 1.6 mg/kg/injection, schedule: Q01DX001 (ip), vehicle: carboxymethylcellulose (CMC)): 125 % of control | T/C (T/C endpoint: mean survival time, dose: 2.5 mg/kg/injection, schedule: Q01DX001 (ip), vehicle: carboxymethylcellulose (CMC)): 125 % of control | T/C (T/C endpoint: mean survival time, dose: 3.8 mg/kg/injection, schedule: Q01DX001 (ip), vehicle: carboxymethylcellulose (CMC)): 127 % of control | T/C (T/C endpoint: mean survival time, dose: 5.7 mg/kg/injection, schedule: Q01DX001 (ip), vehicle: carboxymethylcellulose (CMC)): 128 % of control | T/C (T/C endpoint: mean survival time, dose: 8.6 mg/kg/injection, schedule: Q01DX001 (ip), vehicle: carboxymethylcellulose (CMC)): 132 and 133 % of control | T/C (T/C endpoint: mean survival time, dose: 13.0 mg/kg/injection, schedule: Q01DX001 (ip), vehicle: carboxymethylcellulose (CMC)): 128 % of control | T/C (T/C endpoint: mean survival time, dose: 20.0 mg/kg/injection, schedule: Q01DX001 (ip), vehicle: carboxymethylcellulose (CMC)): 128 and 147 % of control

CC(C)NCc1ccc2c(c1)OCO2
survivor count [4]: 1 of 6

O=c1[nH]c2c(ncn2C2OC3COP(=O)(O)OC3C2O)c2nccn12 (centres undefined)
survivor count (T/C endpoint: mean survival time, dose: 200.0 mg/kg/injection, schedule: Q01DX005 (ip), vehicle: distilled water + Tween-80): 0 of 4

O=[N+]([O-])c1ccc(O)c(Cl)c1
survivor count (T/C endpoint: mean survival time, dose: 100.0 mg/kg/injection, schedule: Q01DX009 (ip), vehicle: saline with Tween-80): 0 of 3 | survivor count [11]: 0 of 3

CC(=O)c1cc2c(cc1C(C)C)CC[C@H]1[C@](C)(C#N)CCC[C@]21C
survivor count [9]: 6 of 6 | survivor count [10]: 6 of 6

O/N=C(/Cl)c1ccccn1
survivor count (T/C endpoint: mean survival time, dose: 15.0 mg/kg/injection, schedule: Q01DX001 (ip), vehicle: saline): 0 of 6 | survivor count (T/C endpoint: mean survival time, dose: 30.0 mg/kg/injection, schedule: Q01DX001 (ip), vehicle: saline): 0 of 6 | survivor count [2]: 0 of 6 | survivor count [3]: 0 of 6 | survivor count [4]: 0 of 6

COCS(=O)[O-].[C-]#[O+].[C-]#[O+].[Fe+6].[c-]1[c-][c-][cH-][c-]1
survivor count (T/C endpoint: mean survival time, dose: 100.0 mg/kg/injection, schedule: Q04DX002 (ip), vehicle: saline): 0 of 3 | survivor count (T/C endpoint: mean survival time, dose: 200.0 mg/kg/injection, schedule: Q04DX002 (ip), vehicle: saline): 0 of 3 | survivor count [12]: 0 of 3

O=CNc1ccc2c(c1)C(Br)c1ccccc1-2 (centres undefined)
survivor count [11]: 6 of 6 | survivor count [1]: 3 of 6

Cc1c(N)nc(C(CC(N)=O)NCC(N)C(N)=O)nc1C(=O)NC(C(=O)NC(C)C(O)CC(=O)NC(C(=O)NC(OC1OC(C)C(N)C(O)C1O)C(O)c1nc(-c2nc(C(=O)NCCCC(N)CC(=O)NCCCNCCCCN)cs2)cs1)C(C)O)C(OC1OC(CO)C(O)C(O)C1OC1OC(CO)C(O)C(OC(N)=O)C1O)c1cnc[nH]1 (centres undefined)
survivor count (T/C endpoint: mean survival time, dose: 32.0 mg/kg/injection, schedule: Q01DX009 (ip), vehicle: saline): 6 of 6
